For some of these results: The exact form of at least one protein or probe is not confirmed. For some of these results: Weaker means in comparison with the reference protein, sequence or condition of that experiment. For some of these results: At least one result comes from cells or an extract, where the contact may be indirect.
Legend:
[1] = test system: KpnDRT2 reverse transcriptase (Klebsiella pneumoniae); assay: activity in cells; conditions: protein in cells, protein details: N-terminal 3xFLAG (some plasmids untagged), variant of KpnDRT2 ncRNA WT
[2] = test system: KpnDRT2 reverse transcriptase (Klebsiella pneumoniae); assay: pull-down; conditions: RIP-seq; strong ncRNA and cDNA enrichment; protein in cells; protein details: N-terminal 3xFLAG (some plasmids untagged); variant of KpnDRT2 ncRNA WT
[3] = test system: KpnDRT2 reverse transcriptase (Klebsiella pneumoniae); assay: activity assay; conditions: in vitro reverse transcription with 1 mM dNTPs, 5 mM MgCl2, 37 C; ncRNA consumed by 45 min; purified recombinant protein

| Sequence | activity on this sequence ([1]; near-WT) | activity on this sequence ([1]; retained cDNA and RCRT) | further results |
| --- | --- | --- | --- |
| GCCCUAAACAAAGGUUUAGGGGUAUUGUACAGGUUGUCAAGCCUCCCACAGGUCUUGGCGCUACUGAUUACAUUAUACAGCAUAUCUAACAUUUGCGGCGAGGUUCACAAUUUGUAUUUAGGUACUGAUUGUGGAUGAGAAGGUUGGAGAAAGACCACUUGGUUAAGCCGGAGGAUGUGUCCUAGAAUUGUCGCUAUUCUGUCAUCCUCCGGUUUUGCUAA [del60] | active |  |  |
| GCCCUAAACAAAGGUUUAGGGGUAUUGUACAGGUUGUCAAGCCUCCCACAGGUCUUGGUGAAACCAAUAUUGACUCCACGCUACUGAUUACAUUAUACAGCAUAUCUAACAUUUGCGGCGAGGUUCACAAUUUGUAUUUAGGUACUGAUUGUGGAUGAGAAGGUUGGAGAAAGACCACUUGGUUAAGCCGGAGGAUGUGUCCUAGAAUUGUCGCUAUUCUGUCAUCCUCCGGUUUUGCUAA [del40] | active |  |  |
| GCCCUAAACAAAGGUUUAGGGGUAUUGUACAGGUUGUCAAGCCUCCCACAGGUCUUGGUGAAACCAAUCACUGUGACGACGGUAAGCAACACUUGGAUGAUAUUCAUAAUUGACUCCACGCUACCUAAUUUUUAGCGAAACAUAUCUAACAUUUGCGGCGAGGUUCACAAUUUGUAUUUAGGUACUGAUUGUGGAUGAGAAGGUUGGAGAAAGACCACUUGGUUAAGCCGGAGGAUGUGUCCUAGAAUUGUCGCUAUUCUGUCAUCCUCCGGUUUUGCUAA [SL5 scrambled ncRNA] |  |  | binding result [2]: binds |
| GCCCUAAACAAAGGUUUAGGGGUAUUGUACAGGUUGUCAAGCCUCCCACAGGUCUUGGUGAAACCAAUCACUGUGACGACGGUAAGCAACACUUGGAUGAUAUUCAUAAUUGACUCCACGCUACUGAUUACAUUAUACAGCAUAUCUAACAUUUGCGGCGAGGUUCACAAUUUGUAUUUAGGUACUGAUUGUGGAUGAGAAGGUUGGAGAAAGACCACUUGGUUAAGCCGGAGGAUGUGUCCUAGAAUUGUCGCUAUUCUGUCAUCCUCCGGUUUUGCUAA [KpnDRT2 ncRNA WT] |  |  | activity on this sequence [3]: active |
| GCCCUAAACAAAGGUUUAGGGGUAUUGUACAGGUUGUCAAGCCUCCCACAGGUCUUGGUGAAACCAAUCACUGUGACGACGGUAAGCAACACUUGGAUGAUAUUCAUAAUUGACUCCACGCUACUGAUUACAUUAUACAGCAUAUCUAACAUUUGCGGCGAGGUUCACAAUUUGUAUUUAGGUACUGAUUGUGGAUGAGAAGGUUGGAGAAAGACCACUUGGUUAAGCCGGAGGAUGUGUCCUAGAAUUGUCGCUAUUCUGUCAUCCUCCGGUUUUGCUAAUAUUC [3'ins5] |  |  | activity on this sequence ([1]; cDNA and RCRT similar to WT): active |
| GCCCUAAACAAAGGUUUAGGGGUAUUGUACAGGUUGUCAAGCCUCCCACAGGUCUUGGUGAAACCAAUCACUGUGACGACGGUAAGCAACACUUGGAUGAUAUUCAUAAUUGACUCCACGCUACUGAUUACUGCUAGAGGAUGGAAUGACCUUAAAUCAGGGACGAUAUUAAACGGAACGUAUAUUCAACGCAAUGAAGCCGGAGGAUUGGCGUGGGAAUCGUGCUUCUGUCUAAGCAAGUAAGGGUAUGAGGUCGCAACCGUCCCCCAAGCGUACAGGGUGCACUUUGUAACGAUUUGGGAGUCCAGAGACUCGCUGUUUUCGAAAUUUGCCCUCAAGCGCGAGUAUUGAACCAGGCUUACGCCCAAGAACGUAGCAAGCAUUAUACAGCAUAUCUAACAUUUGCGGCGAGGUUCACAAUUUGUAUUUAGGUACUGAUUGUGGAUGAGAAGGUUGGAGAAAGACCACUUGGUUAAGCCGGAGGAUGUGUCCUAGAAUUGUCGCUAUUCUGUCAUCCUCCGGUUUUGCUAA [ins250_SL5] |  | active |  |
| GCCCUAAACAAAGGUUUAGGGGUAUUGUACAGGUUGUCAAGCCUCCCACAGGUCUUGGUGAAACCAAUCACUGUGACGACGGUAAGCAACACUUGGAUGAUAUUCAUAAUUGACUCCACGCUACUGAUUACUGCUAGAGGAUGGAAUGACCUUAAAUCAGGGACGAUAUUAAACGGAACGUCCCUCAAGCGCGAGUAUUGAACCAGGCUUACGCCCAAGAACGUAGCAAGCAUUAUACAGCAUAUCUAACAUUUGCGGCGAGGUUCACAAUUUGUAUUUAGGUACUGAUUGUGGAUGAGAAGGUUGGAGAAAGACCACUUGGUUAAGCCGGAGGAUGUGUCCUAGAAUUGUCGCUAUUCUGUCAUCCUCCGGUUUUGCUAA [ins100_SL5] |  | active |  |
| GCCCUAAACAAAGGUUUAGGGGUAUUGUACAGGUUGUCAAGCCUCCCACAGGUCUUGGUGAAACCAAUCACUGUGACGGAUAUUCAUAAUUGACUCCACGCUACUGAUUACAUUAUACAGCAUAUCUAACAUUUGCGGCGAGGUUCACAAUUUGUAUUUAGGUACUGAUUGUGGAUGAGAAGGUUGGAGAAAGACCACUUGGUUAAGCCGGAGGAUGUGUCCUAGAAUUGUCGCUAUUCUGUCAUCCUCCGGUUUUGCUAA [del20] | active |  |  |
| GCCCUAAACAAAGGUUUAGGGGUAUUGUACAGGUUGUCAAGCCUCCCACAGGUCUUGGUUGCUAGAGGAUGGAAUGACCUUAAAUCAGGGACGAUAUUAAACGGAACGUAUAUUCAACGCAAUGAAGCCGGAGGAUUGGCGUGGGAAUCGUGCUUCUGUCUAAGCAAGUAAGGGUAUGAGGUCGCAACCGUCCCCCAAGCGUACAGGGUGCACUUUGUAACGAUUUGGGAGUCCAGAGACUCGCUGUUUUCGAAAUUUGCCCUCAAGCGCGAGUAUUGAACCAGGCUUACGCCCAAGAACGUAGCAAGCGAAACCAAUCACUGUGACGACGGUAAGCAACACUUGGAUGAUAUUCAUAAUUGACUCCACGCUACUGAUUACAUUAUACAGCAUAUCUAACAUUUGCGGCGAGGUUCACAAUUUGUAUUUAGGUACUGAUUGUGGAUGAGAAGGUUGGAGAAAGACCACUUGGUUAAGCCGGAGGAUGUGUCCUAGAAUUGUCGCUAUUCUGUCAUCCUCCGGUUUUGCUAA [ins250_SL3] |  | active |  |
| GCCCUAAACAAAGGUUUAGGGGUAUUGUACAGGUUGUCAAGCCUCCCACAGGUCUUGGUUGCUAGAGGAUGGAAUGACCUUAAAUCAGGGACGAUAUUAAACGGAACGUCCCUCAAGCGCGAGUAUUGAACCAGGCUUACGCCCAAGAACGUAGCAAGCGAAACCAAUCACUGUGACGACGGUAAGCAACACUUGGAUGAUAUUCAUAAUUGACUCCACGCUACUGAUUACAUUAUACAGCAUAUCUAACAUUUGCGGCGAGGUUCACAAUUUGUAUUUAGGUACUGAUUGUGGAUGAGAAGGUUGGAGAAAGACCACUUGGUUAAGCCGGAGGAUGUGUCCUAGAAUUGUCGCUAUUCUGUCAUCCUCCGGUUUUGCUAA [ins100_SL3] |  | active |  |
| GCCCUAAACAAAGGUUUAGGGGUAUUGUACAGGUUGUCAAGCCUCCCAUACAUUAUACAGCAUAUCUAACAUUUGCGGCGAGGUUCACAAUUUGUAUUUAGGUACUGAUUGUGGAUGAGAAGGUUGGAGAAAGACCACUUGGUUAAGCCGGAGGAUGUGUCCUAGAAUUGUCGCUAUUCUGUCAUCCUCCGGUUUUGCUAA [del80] | active |  |  |
| GCCCUAAACAAAGGUUUAGGGGUAUUGUACAGGUUGUCAGCAUAUCUAACAUUUGCGGCGAGGUUCACAAUUUGUAUUUAGGUACUGAUUGUGGAUGAGAAGGUUGGAGAAAGACCACUUGGUUAAGCCGGAGGAUGUGUCCUAGAAUUGUCGCUAUUCUGUCAUCCUCCGGUUUUGCUAA [del100] | active |  |  |
| GCCCUAAACAAAGGUUUAGGGGUAUUGUACAUUAAACGUGGUCUGACCCCACCAGCUGGACACCAAUAAAAUAUUGAAGUCCACCUUUGCCGUCAAAGACCGGCUGCAAGUGCAGUAAGUUCCAAAACUUUUUCCCGGAUUUCGUGUAGUUGAUAAGCUGAACGGUCGUCGGGCGACGGUCGCGGAUAGCGUCACGAAUUUUUUGCACCGUGGCUUGGUCAGUUUCUGGCCCCUGCAAAAAACGCGCGUUGCGUCCCAUAAUCUCUUCACGGGAAUACUCCGUCAAUUCCAAGAAACCAUCUGAAGCUGAAAUGAUCGGGUAAUCAGGCAGCCAGGGGUCAGUAAUCACGAACGAUUUUUCCAUACAUUUGCGGCGAGGUUCACAAUUUGUAUUUAGGUACUGAUUGUGGAUGAGAAGGUUGGAGAAAGACCACUUGGUUAAGCCGGAGGAUGUGUCCUAGAAUUGUCGCUAUUCUGUCAUCCUCCGGUUUUGCUAA [sub_miniGFP1] |  |  | activity on this sequence ([1]; low but detectable): less active |
